The record followed here is PMC12670160, “A drug-repurposing screen of FDA- and EMA-approved drugs identifies two NF-κB inhibitors active against eumycetoma” (Journal of Antimicrobial Chemotherapy, 2025).

Counter-ions that a name gives are not always drawn. Screen size: about 5,300 compounds; about 130 (2.5%) showed an effect of 50% or more. The list shows a part of the results. Numbered stars: 1 amine (or outer) side, 2 acyl side, 3 side chain; on linkers, the order of the positions; unused ones are H or OH. Bridge positions count the residues as written; N and C are the ends. Square brackets hold non-standard residues; d marks the D form. Peptide text beside a SMILES is read from it. * marks the point of attachment. hTyr(3S-OH,4S-OH,3'-OSO3H) = N[C@H](C(=O)O)[C@H](O)[C@@H](O)c1ccc(O)c(OS(=O)(=O)O)c1; Orn(4R-OH,5R-OH) = O=C([C@H](C[C@@H](O)[C@@H](O)N[*:3])N[*:1])[*:2]; Pro(3S-OH,4S-Me) = C[C@H]1CN[C@H](C(=O)O)[C@H]1O; X3 = CCCCCOc1ccc(-c2cc(-c3ccc(C(=O)*)cc3)no2)cc1; Gln(3R-OH) = NC(=O)C[C@@H](O)[C@H](N)C(=O)O; Hyp = O=C(O)[C@@H]1C[C@@H](O)CN1

The subject of the test is M. mycetomatis strain mm55. The following applies: primary screen, metabolic activity vs growth control; 96 h, 2 µM; inhibitor.
For `Nc1nccc(/C=C/c2ccccc2)n1` [ONC0001621, tcn238], the “% viability” value was found to be 73.65%.
The same measure for `O=C1NC(=O)c2c1c1c3ccccc3[nH]c1c1[nH]c3ccccc3c21` [ONC0003629, arcyriaflavina]: 80.39%; for `OC(c1ccccc1)(c1ccccc1)C12CC[N+](CCOCc3ccccc3)(CC1)CC2` [ONC0000981, umeclidinium bromide]: 69.71%; for `COc1cc(C(=O)NCCCCCC(=O)O)cc(OC)c1OC` [ONC0003945, capobenic acid]: 59.91%.
In the case of `N[C@@H](CCC(=O)N[C@@H](CS)C(=O)NCC(=O)O)C(=O)O` [ONC0004053, glutathione], the “% viability” value came out at 106.8%.
For `CC1=C(C(=O)O)N2C(=O)[C@@H](NC(=O)[C@H](N)C3=CCC=CC3)[C@H]2SC1` [ONC0000905, cefradine], the “% viability” value turned out to be 67.04%.
As to `C#Cc1cccc(Nc2ncnc3cc4c(cc23)OCCOCCOCCO4)c1` [ONC0004775, icotinib], the “% viability” value came to 65.11%.
Regarding `C=CC(=O)Nc1cc(Nc2nccc(-c3cn(C)c4ccccc34)n2)c(OC)cc1N(C)CCN(C)C` [ONC0001076, osimertinib], the “% viability” value was found to be 66.38%.
The same measure for `COc1cc(NC(=O)c2cccc(-n3cc(NC(=O)Nc4cccc(C)c4)cn3)c2)cc(OC)c1OC` [ONC0004464, sr3576]: 114%; for `NC(=O)CNCCC(c1ccccc1)c1ccccc1` [ONC0000869, n20c]: 65.97%; for `Cc1ccc(NCCCc2ccccc2)c(N)c1` [ONC0004824, jsh23]: 98.24%.
Consider `NC(=O)c1nc(Nc2ccccc2)sc1NC(=O)C1CCCCC1` [ONC0003128, unc3230], for which the “% viability” value worked out at 102.9%.
As to `O=[N+]([O-])c1cncn1CCN1CCOCC1` [ONC0001176, nimorazole], the “% viability” value is listed as 113.3%.
On to `C=CC(=O)Nc1cc(Nc2nccc(-c3c[nH]c4ccccc34)n2)c(OC)cc1N(C)CCN(C)C` [ONC0005167, az5104], for which the “% viability” value is given as 113.3%.
Take `O=C1NCN(c2ccccc2)C12CCN(CC1COc3ccccc3O1)CC2` (stereo not shown) [ONC0000435, spiroxatrine]: the “% viability” value is 63.33%.
Turning to `Cn1cc(-c2cnn3c(N)c(Br)c([C@@H]4CCCNC4)nc23)cn1` [ONC0004477, mk8776 sch 900776], the “% viability” value is given as 129.9%.
The same measure for `CN1C[C@H](C(=O)N[C@]2(C)O[C@@]3(O)[C@@H]4CCCN4C(=O)[C@H](Cc4ccccc4)N3C2=O)C[C@@H]2c3cccc4[nH]cc(c34)C[C@H]21` [ONC0001275, dihydroergotamine]: 111.9%; for `C=C1C[C@@]2(O)O[C@@]3(C[C@H]2C(C)C)[C@@H](C)CC[C@@H]13` [ONC0004732, curcumol]: 112%.
Regarding `C[C@]12CC[C@H](O)C[C@H]1CC[C@@H]1[C@@H]2CC[C@]2(C)[C@@](O)(c3ccoc3)CC[C@]12O` [ONC0002466, rostafuroxin], the “% viability” value is 69.84%.
As for `CCCCCCCCCCCCCCCC[n+]1ccn(Cc2ccccc2)c1C` [ONC0000882, nh125], the “% viability” value was determined as 55.59%.
Regarding `C=CC(=O)Nc1cccc(Nc2nc(Nc3ccc(Oc4ccnc(C(=O)NC)c4)cc3)ncc2F)c1` [ONC0005138, cnx774], the “% viability” value turned out to be 87.05%.
Then `CCCSc1nc(N[C@@H]2C[C@H]2c2ccc(F)c(F)c2)c2nnn([C@@H]3C[C@H](OCCO)[C@@H](O)[C@H]3O)c2n1` [ONC0004467, ticagrelor], with 113.4%; and `Oc1c(I)cc(I)cc1I` [ONC0003717, am24], with 112.6%.
The same measure for `N=C(N)c1ccc(/C=C/c2ccc(C(=N)N)cc2O)cc1` [ONC0003463, hydroxystilbamidine]: 43.6%; for `COc1ccc(-c2ccc3ncc4c(c3c2)n(-c2ccc(N3CCNCC3)c(C(F)(F)F)c2)c(=O)n4C)cn1` [ONC0004479, nvpbgt226]: 119.2%; for `O=C(Nc1ccc(C(O)(C(F)(F)F)C(F)(F)F)cc1)c1ccc(C(F)(F)F)cc1` [ONC0000412, sr1078]: 46.34%.
`COc1cccc(CCc2ccccc2OCC[C@@H]2C[C@@H](O)CN2C)c1` [ONC0001734, r96544]: the “% viability” value is given as 92.52%.
Take `CC(=O)O[C@]1(C(C)=O)CC[C@H]2[C@@H]3C=C(Cl)C4=CC(=O)[C@@H]5C[C@@H]5[C@]4(C)[C@H]3CC[C@@]21C` [ONC0005384, cyproteroneacetate]: the “% viability” value is listed as 126.3%.
The same measure for `CC(C)c1cc(-c2n[nH]c(=O)n2-c2ccc3c(ccn3C)c2)c(O)cc1O` [ONC0004686, ganetespib sta9090]: 103%; for `O=C(O)C1CCCN(CCC=C(c2ccccc2)c2ccccc2)C1` (stereo not shown) [ONC0000231, skf89976a]: 54.46%.
On to `O=C1c2ccccc2C(=O)C1c1ccc(Cl)cc1` [ONC0004251, chlorindione], for which the “% viability” value is on record as 77.21%.
Take `O=C(O)c1ccccn1` [ONC0003765, picolinicacid]: the “% viability” value was found to be 105.8%.
Consider `CN(C)CC(O)Cn1c2ccc(Br)cc2c2cc(Br)ccc21` (stereo not shown) [ONC0001876, wiskostatin], for which the “% viability” value is reported as 62.56%.
Then `CCCc1c2oc(C(=O)O)cc(=O)c2cc2c(=O)cc(C(=O)O)n(CC)c12` [ONC0000883, nedocromil], with 92.67%; and `Nc1nc(O)c2nc(Br)n([C@@H]3O[C@@H]4COP(=O)(O)O[C@H]4[C@H]3O)c2n1` [ONC0001556, 8bromocgmp], with 117.8%.
On to `N[C@H]1C[C@@H]1c1ccc(-c2cccc(O)c2)cc1` [ONC0004698, ogl002], for which the “% viability” value was 135.7%.
Then `C#C[C@]1(OC(C)=O)CC[C@H]2[C@@H]3CCC4=CC(=NO)CC[C@@H]4[C@H]3CC[C@@]21CC` (mixture of isomers) [ONC0004199, norgestimate], with 105%.
In the case of `COc1cc2c(cc1OC)[C@@H](Cc1cc(OC)c(OC)c(OC)c1)[N+](C)(CCCOC(=O)CC/C=C/CCC(=O)OCCC[N+]1(C)CCc3cc(OC)c(OC)cc3[C@H]1Cc1cc(OC)c(OC)c(OC)c1)CC2` (stereo partly shown) [ONC0003343, mivacurium chloride], the “% viability” value worked out at 67.68%.
In the case of `COc1cc(C(=O)N(CCC2CCCN2C)C/C(C)=C/c2ccccc2F)cc(OC)c1OC` (stereo not shown) [ONC0000182, vuf11207 fumarate], the “% viability” value was 91.37%.
For `N#CSc1cc(SC#N)c(N)nc1N` [ONC0004825, pr619], the “% viability” value worked out at 126.7%.
Then `CS(=O)(=O)c1ccc([C@@H](CC2CCCC2)C(=O)Nc2nccs2)cc1` [ONC0001248, ro 281675], with 68.47%; and `Nc1nc(O)c2ncn(COC(CO)CO)c2n1` [ONC0003983, ganciclovir hydrate], with 92.25%; and `C[N+](C)(C)CCCCCCCCCC[N+](C)(C)C` [ONC0003988, decamethonium bromide], with 53.62%.
For `c1ccc2nc(N3CCNCC3)ccc2c1` [ONC0001514, quipazine], the “% viability” value is reported as 69.69%.
Consider `CC(=O)O[C@]1(C(C)=O)CC[C@H]2[C@@H]3CCC4=CC(=O)CCC4=C3[C@@H](c3ccc(N(C)C)cc3)C[C@@]21C` [ONC0004764, ulipristal acetate], for which the “% viability” value was found to be 66.83%.
For `CCCCCOc1ccc(-c2cc(-c3ccc(C(=O)N[C@H]4C[C@@H](O)[C@@H](O)NC(=O)[C@@H]5[C@@H](O)[C@@H](C)CN5C(=O)[C@H]([C@H](O)CC(N)=O)NC(=O)[C@H]([C@H](O)[C@@H](O)c5ccc(O)c(OS(=O)(=O)O)c5)NC(=O)[C@@H]5C[C@@H](O)CN5C(=O)[C@H]([C@@H](C)O)NC4=O)cc3)no2)cc1` [ONC0002269, micafungin sodium] (X3-[Orn(4R-OH,5R-OH)]T[Hyp][hTyr(3S-OH,4S-OH,3'-OSO3H)][Gln(3R-OH)][Pro(3S-OH,4S-Me)]; lactam 1-C), the “% viability” value was found to be 64.37%.
For `CC(C)(COP(=O)(O)OP(=O)(O)OC[C@H]1O[C@@H](n2cnc3c(N)ncnc32)[C@H](O)[C@@H]1OP(=O)(O)O)[C@@H](O)C(=O)NCCC(=O)NCCS` [ONC0003793, coenzymea], the “% viability” value is given as 73.65%.
In the case of `CC(C)OC(=O)Nc1cccc(Cl)c1` [ONC0005285, chlorpropham], the “% viability” value is recorded as 93.59%.
In the case of `CCCCc1nc2cc(/C=C/C(=O)NO)ccc2n1CCN(CC)CC` [ONC0004854, sb939 pracinostat], the “% viability” value is recorded as 97.96%.
The same measure for `O=C(O)/C=C/c1ccc(O)c(O)c1` [ONC0004666, caffeic acid]: 113%; for `CC1(C)CC(=O)c2c(C(F)(F)F)nn(-c3ccc(C(N)=O)c(N[C@H]4CC[C@H](O)CC4)c3)c2C1` [ONC0005078, snx2112]: 82.8%; for `O=C(Nc1cc(C(F)(F)F)cc(C(F)(F)F)c1)c1cnc(Cl)nc1C(F)(F)F` [ONC0001396, sp100030]: 126.3%.
As for `COc1cc2nc(N(C)CCCNC(=O)C3CCCO3)nc(N)c2cc1OC` (stereo not shown) [ONC0005522, alfuzosin hydrochloride], the “% viability” value is reported as 118.4%.
On to `Clc1ccc(Cn2c(CN3CCCC3)nc3ccccc32)cc1` [ONC0003977, clemizole hydrochloride], for which the “% viability” value was 58.3%.
`CNCCn1c(=O)c2cc(OC)c(OC)cc2c2cnc3cc4c(cc3c21)OCO4` [ONC0000973, genz644282]: the “% viability” value came to 79.82%.
With `Oc1ccc2ccccc2c1SSc1c(O)ccc2ccccc12` [ONC0002579, ipa3], the “% viability” value turned out to be 67.38%.
As for `CCN(CC)c1ccc(C(=C2C=CC(=[N+](CC)CC)C=C2)c2ccccc2)cc1` [ONC0002765, brilliant green], the “% viability” value worked out at 123.8%.
For the compound `COc1cc(C[C@@H](CO[C@@H]2O[C@H](CO)[C@@H](O)[C@H](O)[C@H]2O)[C@H](CO[C@@H]2O[C@H](CO)[C@@H](O)[C@H](O)[C@H]2O)Cc2ccc(O)c(OC)c2)ccc1O` [ONC0000280, secoisolariciresinol diglucoside], the “% viability” value is reported as 88.73%.
